The data set has as its system thrombin. The data set is described as follows: inhibition of the protein. As to conditions: 20 uM control DNA, 10 nM thrombin; 24 s thrombin alone; purified native protein; protein details: Sigma T-6759; single-stranded DNA; variant of consensus 7-mer GGTTGGG; counted as no effect.

Consider GGGGGTT [control 7-mer GGGGGTT], for which the functional effect of the aptamer (s clotting time) amounted to 26.

The values are drawn from patent US5840867.
